According to PubChem BioAssay AID2685 (National Center for Advancing Translational Sciences (NCATS), 2010):
The list shows a part of the results. Shown are side measurements of this screen, not its main read-out; they come without a call. Most of these compounds were active or inconclusive in the main read-out, so they are no random draw. Potencies come from curve fits of mixed quality, noted in brackets.

Assay: qHTS Assay for Lipid Storage Modulators in Drosophila S3 Cells;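 on cell number change: cells counted by Cell Tracker Red CMTPX staining in the red channel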
Details: BODIPY lipid droplet fluorescence, 18-24 h; for cell number change: measured here: cell count max response, cells fed with added oleic acid
Method in brief: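 Laser-scanning cytometry quantifies lipid droplet accumulation (500–530 nm total intensity; droplet/cell object ratio) in oleic acid-fed (400 uM added) Drosophila S3 cells treated with a concentration series. 20 uM Triacsin C defined 100% inhibition.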

[1] = measured here: lipid fluorescence (Fed channel) AC50, cells fed with added oleic acid
[2] = measured here: cell number channel AC50, cells fed with added oleic acid

Compound | cell number change [%] | AC50 [1] | AC50 [2]
Cc1oc(-c2ccccc2F)nc1CS(=O)(=O)CC(=O)NCCCN1CCc2ccccc2C1 | 1.22 | 29.1 µM [rising, single point] | –
NC(=O)c1nn(Cc2ccccc2)c(=O)c2ccccc12 | -15.1 | 29.1 µM [rising, single point] | 0.116 µM [falling, full curve, poor fit]
O=C(NC1CCCCC1)C(c1cccnc1)N(C(=O)CCl)c1cccc(Cl)c1 (stereo not drawn) | -11.8 | 18.4 µM [falling, single point] | –
CC12CC3CC(C)(C1)CC(C(=O)Nc1nncs1)(C3)C2 | -4.4 | 29.1 µM [rising, single point] | –
COc1ccc(C(=O)C[n+]2ccc3ccccc3c2C)cc1 | -15.8 | 0.651 µM [falling, partial curve, poor fit] | –
O=C(CCN1C(=O)/C(=C/c2ccccc2Cl)SC1=S)Nc1ccccc1C(=O)O | 13 | 3.26 µM [rising, full curve, poor fit] | –
O=C(NCc1ccncc1)C(=O)Nc1nc2ccccc2s1 | 35.7 | 29.1 µM [rising, partial curve] | –
Nc1ccc2nc[nH]c2c1 | 90.9 | – | –
CCOC(=O)c1cnc(SCC(=O)NCc2ccco2)nc1N | 0.651 | 1.46 µM [falling, partial curve] | –
CCC(C)c1ccccc1NC(=O)COC(=O)CCc1cc(OC)c(OC)c(OC)c1 (stereo not drawn) | -8.66 | 7.31 µM [falling, single point] | –
Cn1nc(-c2ccc(OCC(=O)Nc3cccnc3)cc2)c2ccccc2c1=O | – | 5.17 µM [rising, single point] | –
CC(=O)Nc1ccc(NC(=O)C(C)OC(=O)CCCOc2ccc(Cl)c(C)c2)cc1 (stereo not drawn) | – | 0.00461 µM [rising, full curve, poor fit] | –
CC1=C(C#N)C(NC(=O)C(C)(C)C)(C(F)(F)F)C(=O)N1 (stereo not drawn) | -6.21 | – | 0.651 µM [falling, single point]
O=C(OCC(=O)N1CCN(c2ccccc2)CC1)c1ccc(O)cc1O | -1.67 | 0.00411 µM [rising, full curve, poor fit] | –
Cc1ccc2nc3c(c(C(=O)O)c2c1)CCC3 | 1.52 | – | –
CCOc1ccc(-n2cc(C(=O)Nc3cccc(OC)c3)c3cc(OC)c(OC)cc3c2=O)cc1 | 38.6 | 6.51 µM [rising, single point] | 0.517 µM [rising, full curve]
O=C1c2ccccc2C(=O)N1CN(C(=O)c1ccccc1[N+](=O)[O-])c1ccc(F)cc1 | 0.481 | 0.0103 µM [falling, full curve, poor fit] | 6.51 µM [rising, single point]
COc1cc(C2C(C(=O)c3cc4ccccc4o3)=C(O)C(=O)N2CCN2CCOCC2)ccc1OCCC(C)C (stereo not drawn) | 2.21 | 6.51 µM [falling, single point] | –
C=CCc1cccc2cc(C(=O)N3CCN(C(=O)c4ccccc4)CC3)c(=O)oc12 | -23.1 | – | –
Nc1nc(-c2ccccc2)cc(-c2ccccc2O)n1 | 37.3 | – | 29.1 µM [rising, single point]

Compound | cell number change [%] | AC50 [1] | AC50 [2]
CC1=CC(C)(C)Nc2ccc(OC(=O)CN3C(=O)c4cccc5cccc(c45)C3=O)cc21 | -3.55 | 1.64 µM [falling, partial curve] | –
COc1ccc(Oc2coc3cc(OCC(=O)N4CCCCC4)ccc3c2=O)cc1 | -47.2 | 32.6 µM [rising, partial curve, poor fit] | 0.82 µM [falling, full curve, poor fit]
CC1CCN(C(=O)Cn2c(SCC(=O)Nc3nccs3)nc3ccccc32)CC1 | 24.9 | 0.58 µM [rising, full curve] | –
N#Cc1ccc(CN2CCN(C(=O)CCNS(=O)(=O)c3ccc(F)c(F)c3)CC2)cc1 | 7.09 | 32.6 µM [falling, single point] | –
COC(=O)c1ccccc1S(=O)(=O)N1CCC(C(=O)N2CCC2)CC1 | 11.4 | 6.51 µM [falling, partial curve, poor fit] | –
COc1ccc(CNC(=O)CSc2nc3ccc(OC)cc3[nH]2)cc1 | -8.42 | 29.1 µM [falling, single point] | –
Cc1cc(O)c(NC(=S)NC(=O)c2ccc(-c3ccc(Cl)cc3)o2)cc1C | -87.5 | 14.6 µM [falling, partial curve] | 16.4 µM [falling, partial curve]
O=C(NCCCn1ccnc1)c1ccc(Cl)cc1 | 20.3 | 2.91 µM [rising, partial curve, poor fit] | –
Cc1ccc(Nc2cc(=O)n(C3CCCCC3)c(=O)[nH]2)cc1C | – | 20.6 µM [falling, partial curve, poor fit] | –
CC1(NC(=O)Cc2ccc(S(=O)(=O)N3CCOCC3)s2)CCS(=O)(=O)C1 (stereo not drawn) | -19.3 | – | –
Cc1noc(C)c1CSc1ccccc1C(=O)O | -12.7 | 29.1 µM [falling, single point] | –
COc1cccc(-c2nc3n(n2)C(c2ccc4c(c2)OCO4)C(C(N)=O)=C(C)N3)c1 (stereo not drawn) | – | 16.4 µM [rising, single point] | –
O=C(/C=C/c1ccccc1)NC(=S)Nc1ccccc1O | 2.95 | – | –
CCN1C(=O)[C@@H]2[C@@H](c3ccc(-c4ccc(OC)cc4)cc3)N3CCCC[C@@]3(C(=O)OC)[C@@H]2C1=O | -23.7 | 0.326 µM [rising, partial curve, poor fit] | –
COc1ccc(C2=NN(CN3C(=O)C(=O)c4ccccc43)C(c3ccc(Br)cc3)C2)cc1 (stereo not drawn) | 80 | 9.2 µM [rising, partial curve] | 2.59 µM [rising, partial curve]
CSc1cccc(-n2cc(-c3ccc4c(c3)OCO4)[nH]c2=O)c1 | -1.16 | 2.31 µM [falling, partial curve] | –
Cc1c(-c2ccccc2)n[nH]c1C(=O)N=Nc1c(O)[nH]c2ccccc12 | -27.4 | – | 0.0259 µM [rising, partial curve]
Cc1noc(C)c1COc1ccc(C(=O)N2CCN(S(=O)(=O)c3ccc(Cl)cc3)CC2)cc1 | -77.5 | 0.731 µM [falling, partial curve, poor fit] | 11.6 µM [falling, partial curve, poor fit]
O=c1cc(Cl)c(-c2ccccc2)n[nH]1 | -65.7 | 23.1 µM [falling, partial curve] | 25.9 µM [falling, partial curve, poor fit]
COc1ccc(NC(=O)C2C3C=CC4(O3)C2C(=O)N(CCN2CCCCC2)C4C(=O)NC2CCCC(C)C2C)cc1 (stereo not drawn) | – | 0.58 µM [falling, single point] | –

As a working copy, 2 of the compounds above:
Compound | cell number change [%] | AC50 [1] | AC50 [2]
COc1ccc(Oc2coc3cc(OCC(=O)N4CCCCC4)ccc3c2=O)cc1 | -47.2 | 32.6 µM [rising, partial curve, poor fit] | 0.82 µM [falling, full curve, poor fit]
CC1CCN(C(=O)Cn2c(SCC(=O)Nc3nccs3)nc3ccccc32)CC1 | 24.9 | 0.58 µM [rising, full curve] | –

Further results follow:

Compound | cell number change [%] | AC50 [1] | AC50 [2]
COc1ccc(C)cc1S(=O)(=O)NC1CCCCC1 | -2.96 | 0.092 µM [falling, full curve, poor fit] | –
Cc1ccc(C)c(S(=O)(=O)N2C(=S)NC(=O)C2CC(C)C)c1 (stereo not drawn) | 3.02 | 23.1 µM [rising, partial curve, poor fit] | –
COc1ccccc1NC(=O)c1ccc2c(c1)CCN2S(C)(=O)=O | 10.3 | 0.116 µM [rising, full curve, poor fit] | –
O=C(Cc1cccc2ccccc12)NN1C(=O)C2C(C1=O)C1C=CC2C12CC2 (stereo not drawn) | -17.9 | 16.4 µM [falling, single point] | –
Cc1nc(-c2ccncc2)nc(NCCNc2ncccc2C(F)(F)F)c1Cl | -9.55 | – | 0.13 µM [rising, partial curve, poor fit]
COc1ccc(-c2nn(-c3ccccc3)cc2C(=O)NCC(c2cccs2)N2CCOCC2)cc1 (stereo not drawn) | 34.8 | 2.06 µM [rising, partial curve] | 1.84 µM [rising, full curve]
O=C(O)c1cccc(-c2ccc(/C=c3/sc4nc5ccccc5n4c3=O)o2)c1 | -1.44 | 32.6 µM [falling, single point] | –
C/C(=N\NC(=O)c1ccc(F)cc1)c1ccccn1 | 1.42 | 5.8 µM [falling, full curve] | –
O=C1SC(SCc2ccccc2)=N/C1=C\c1ccco1 | 0.128 | – | –
O=C(CCSc1ccc(Br)cc1)Nc1cccnc1 | – | – | 6.51 µM [rising, single point]
O=C(Nc1ccccc1)/C(=C/c1ccc(O)cc1)NC(=O)c1ccco1 | 20.2 | – | –
FC(F)(F)C1CCCN(c2nsc3ccccc23)C1 (stereo not drawn) | 84.2 | 5.62 µM [rising, single point] | 20.6 µM [rising, partial curve]
CC(=O)Nc1ccc(NC(=O)c2ccccc2N(C)S(=O)(=O)c2ccc(C)cc2)cc1 | -21.8 | 29.1 µM [falling, single point] | –
CC(C)c1nc2sc3c(NCc4ccco4)ncnc3c2c2c1COC(C)(C)C2 | -19.6 | 0.231 µM [rising, partial curve, poor fit] | –
COc1cc(NC(=O)CN2CCN(c3ccccc3F)CC2)cc(OC)c1 | -0.947 | – | –
CC(C)(C)c1ccc(O)c(O)c1 | -9.7 | 0.0291 µM [falling, full curve] | 0.184 µM [falling, partial curve]
COc1ccc(-c2oc(=O)c3cc(OC)c(OC)cc3c2/C=C/c2ccc(F)cc2)cc1 | 16.6 | 0.58 µM [falling, single point] | 0.58 µM [falling, single point]
Cc1ccc(S(=O)(=O)N2CCN(S(=O)(=O)c3cccs3)CC2)cc1 | 10.3 | – | –

Record cards, as listed above:
COc1ccc(CNC(=O)CSc2nc3ccc(OC)cc3[nH]2)cc1 is entered as cell number change [%]: -8.42; AC50 [1]: 29.1 µM [falling, single point]
CC(=O)Nc1ccc(NC(=O)c2ccccc2N(C)S(=O)(=O)c2ccc(C)cc2)cc1 is entered as cell number change [%]: -21.8; AC50 [1]: 29.1 µM [falling, single point]
